Measurements reported in PubChem BioAssay AID686938 (Drosophila RNAi Screening Center, 2013)
Aim: 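Fly genes required for calcium entry once internal stores are emptied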 (primary screen). Cell system: Drosophila S2R+ cells. Reagent: long dsRNA against Drosophila genes, about 0.25 µg dsRNA per well, roughly 10,000 cells. Timing: 5 days of knock-down before the calcium assay. Challenge: thapsigargin (SERCA pump blocker) to empty calcium stores; entry signal taken 4 min after adding it. Read-out: 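Duplicate raw fluo-4 intensities per well from a plate reader, at rest and four minutes after thapsigargin emptied calcium stores; entry-to-rest ratio filled for only some wells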. Direction: calcium entry signal: higher = stronger calcium signal after store depletion; resting calcium signal: higher = higher resting calcium signal. Units: calcium entry signal in fluorescence units; resting calcium signal in fluorescence units. Call rule: 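Hit if the duplicate-averaged plate z-score for entry over resting signal is under −3; wells with weak total dye signal (Fmax z < −2) or more than 5 off-targets removed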. Meaning of the calls: active = strongly reduced calcium entry; inactive = no strong reduction.
In all, the deposit lists about 23,000 reagents; shown is a random part of those with a known target gene and a result. Over the whole deposit, 75 (0.33%) got an active call. 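Raw plate signals without normalisation; calls rest on plate z-scores that were not deposited; ratio present for only 364 wells.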 The numbers tell different reagents against one gene apart. No sequences are given here. Not given: the dose of the treatment.

The first 2 records as a preview:
| target gene | reagent no. | calcium entry signal, replicate 1 | calcium entry signal, replicate 2 | resting calcium signal, replicate 1 | resting calcium signal, replicate 2 | activity call |
| --- | --- | --- | --- | --- | --- | --- |
| CG31778 | 1 | 5.24e7 | – | 2.55e7 | – | inactive |
| Lamtor4 (Late endosomal/lysosomal adaptor, MAPK and MTOR activator 4) | 1 | 3.68e7 | 4.39e7 | 1.91e7 | 1.96e7 | inactive |

Main list, from the first entry:
| target gene | reagent no. | calcium entry signal, replicate 1 | calcium entry signal, replicate 2 | resting calcium signal, replicate 1 | resting calcium signal, replicate 2 | activity call |
| --- | --- | --- | --- | --- | --- | --- |
| CG31778 | 1 | 5.24e7 | – | 2.55e7 | – | inactive |
| Lamtor4 (Late endosomal/lysosomal adaptor, MAPK and MTOR activator 4) | 1 | 3.68e7 | 4.39e7 | 1.91e7 | 1.96e7 | inactive |
| CG34006 (retired record) | 1 | 3.63e7 | 3.01e7 | 1.55e7 | 1.47e7 | inactive |
| CG43234 (retired record) | 1 | 3.29e7 | 6.69e7 | 1.50e7 | 2.51e7 | inactive |
| CG42580 | 1 | 3.15e7 | 4.58e7 | 1.73e7 | 2.03e7 | inactive |
| yin | 1 | 3.74e7 | 4.46e7 | 1.70e7 | 2.07e7 | inactive |
| yin | 2 | 3.22e7 | 5.23e7 | 1.52e7 | 2.15e7 | inactive |
| CG4650 | 1 | 3.25e7 | 2.11e7 | 1.59e7 | 1.04e7 | inactive |
| CG14113 | 1 | 3.46e7 | 4.80e7 | 1.71e7 | 2.13e7 | inactive |
| CG9775 | 1 | 3.09e7 | 4.12e7 | 1.49e7 | 2.70e7 | inactive |
| CG9775 | 2 | 3.47e7 | 2.61e7 | 1.52e7 | 1.17e7 | inactive |
| CG1317 | 1 | 4.35e7 | 3.91e7 | 1.90e7 | 2.02e7 | inactive |
| CG43071 | 1 | 3.45e7 | 3.85e7 | 1.58e7 | 1.97e7 | inactive |
| CG16898 | 1 | 5.93e7 | 5.48e7 | 2.45e7 | 2.64e7 | inactive |
| ssp7 (short spindle 7) | 1 | 3.58e7 | 3.02e7 | 1.79e7 | 1.61e7 | inactive |
| ind (intermediate neuroblasts defective) | 1 | 4.26e7 | 5.46e7 | 2.28e7 | 2.55e7 | inactive |
| ind (intermediate neuroblasts defective) | 2 | 4.95e7 | 4.64e7 | 2.28e7 | 1.90e7 | inactive |
| CG32302 | 1 | 3.20e7 | 4.46e7 | 1.61e7 | 1.93e7 | inactive |
| ninaE (neither inactivation nor afterpotential E) | 1 | 3.17e7 | 4.20e7 | 5.20e7 | 1.91e7 | inactive |
| jdp | 1 | 3.18e7 | 4.77e7 | 1.53e7 | 2.21e7 | inactive |
| CG43102 | 1 | 5.13e7 | 2.97e7 | 2.28e7 | 1.41e7 | inactive |
| CG43102 | 2 | 2.72e7 | 3.68e7 | 4.18e7 | 1.98e7 | inactive |
| CG43102 | 3 | 1.89e7 | 2.68e7 | 2.94e7 | 1.16e7 | inactive |
| CG34342 | 1 | 2.92e7 | 4.26e7 | 1.38e7 | 1.87e7 | inactive |
| CG34342 | 2 | 4.78e7 | 3.02e7 | 2.73e7 | 1.39e7 | inactive |
